Source: the supplement of paper PMC10849652
Some of the results follow.

Protein sequences, listed by entry. Tags and fused reporters are not part of them. Lines headed by an entry give the natural chain unless they say otherwise; changes in a name come on top.
UniProt Q8WXB1: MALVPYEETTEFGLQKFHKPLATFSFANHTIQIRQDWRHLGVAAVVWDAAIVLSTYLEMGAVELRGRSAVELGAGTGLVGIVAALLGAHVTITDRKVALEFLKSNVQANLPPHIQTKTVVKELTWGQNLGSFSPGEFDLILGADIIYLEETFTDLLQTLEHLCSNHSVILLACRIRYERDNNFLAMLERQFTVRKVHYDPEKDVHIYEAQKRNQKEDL
UniProt P21741: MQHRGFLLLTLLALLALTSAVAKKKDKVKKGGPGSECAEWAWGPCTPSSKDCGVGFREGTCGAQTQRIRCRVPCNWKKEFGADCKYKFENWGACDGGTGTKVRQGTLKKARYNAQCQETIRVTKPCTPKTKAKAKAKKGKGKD
UniProt Q8TCB7: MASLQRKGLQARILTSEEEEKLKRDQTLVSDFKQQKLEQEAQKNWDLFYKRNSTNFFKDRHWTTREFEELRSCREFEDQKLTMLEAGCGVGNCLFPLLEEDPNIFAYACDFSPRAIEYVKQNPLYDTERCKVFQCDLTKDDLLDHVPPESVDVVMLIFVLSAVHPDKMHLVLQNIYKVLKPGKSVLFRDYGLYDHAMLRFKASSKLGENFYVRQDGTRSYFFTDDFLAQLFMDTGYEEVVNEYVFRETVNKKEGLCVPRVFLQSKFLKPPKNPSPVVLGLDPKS
UniProt Q6ZN04: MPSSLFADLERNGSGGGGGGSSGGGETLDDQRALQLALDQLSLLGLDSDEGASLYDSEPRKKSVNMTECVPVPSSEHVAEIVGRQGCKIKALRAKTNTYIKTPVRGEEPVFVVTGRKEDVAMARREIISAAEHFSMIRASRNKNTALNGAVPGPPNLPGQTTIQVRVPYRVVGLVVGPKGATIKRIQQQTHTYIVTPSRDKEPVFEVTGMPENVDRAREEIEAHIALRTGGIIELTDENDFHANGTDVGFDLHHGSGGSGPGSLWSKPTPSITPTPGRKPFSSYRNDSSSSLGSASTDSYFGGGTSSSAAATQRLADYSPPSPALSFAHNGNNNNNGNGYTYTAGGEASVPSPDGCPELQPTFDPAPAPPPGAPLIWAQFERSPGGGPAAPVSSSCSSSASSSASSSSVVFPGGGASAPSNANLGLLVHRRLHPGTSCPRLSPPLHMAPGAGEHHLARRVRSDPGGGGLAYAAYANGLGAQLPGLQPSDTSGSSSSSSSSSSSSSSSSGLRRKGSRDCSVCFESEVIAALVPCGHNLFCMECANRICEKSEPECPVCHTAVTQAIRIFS
UniProt Q7Z7M0: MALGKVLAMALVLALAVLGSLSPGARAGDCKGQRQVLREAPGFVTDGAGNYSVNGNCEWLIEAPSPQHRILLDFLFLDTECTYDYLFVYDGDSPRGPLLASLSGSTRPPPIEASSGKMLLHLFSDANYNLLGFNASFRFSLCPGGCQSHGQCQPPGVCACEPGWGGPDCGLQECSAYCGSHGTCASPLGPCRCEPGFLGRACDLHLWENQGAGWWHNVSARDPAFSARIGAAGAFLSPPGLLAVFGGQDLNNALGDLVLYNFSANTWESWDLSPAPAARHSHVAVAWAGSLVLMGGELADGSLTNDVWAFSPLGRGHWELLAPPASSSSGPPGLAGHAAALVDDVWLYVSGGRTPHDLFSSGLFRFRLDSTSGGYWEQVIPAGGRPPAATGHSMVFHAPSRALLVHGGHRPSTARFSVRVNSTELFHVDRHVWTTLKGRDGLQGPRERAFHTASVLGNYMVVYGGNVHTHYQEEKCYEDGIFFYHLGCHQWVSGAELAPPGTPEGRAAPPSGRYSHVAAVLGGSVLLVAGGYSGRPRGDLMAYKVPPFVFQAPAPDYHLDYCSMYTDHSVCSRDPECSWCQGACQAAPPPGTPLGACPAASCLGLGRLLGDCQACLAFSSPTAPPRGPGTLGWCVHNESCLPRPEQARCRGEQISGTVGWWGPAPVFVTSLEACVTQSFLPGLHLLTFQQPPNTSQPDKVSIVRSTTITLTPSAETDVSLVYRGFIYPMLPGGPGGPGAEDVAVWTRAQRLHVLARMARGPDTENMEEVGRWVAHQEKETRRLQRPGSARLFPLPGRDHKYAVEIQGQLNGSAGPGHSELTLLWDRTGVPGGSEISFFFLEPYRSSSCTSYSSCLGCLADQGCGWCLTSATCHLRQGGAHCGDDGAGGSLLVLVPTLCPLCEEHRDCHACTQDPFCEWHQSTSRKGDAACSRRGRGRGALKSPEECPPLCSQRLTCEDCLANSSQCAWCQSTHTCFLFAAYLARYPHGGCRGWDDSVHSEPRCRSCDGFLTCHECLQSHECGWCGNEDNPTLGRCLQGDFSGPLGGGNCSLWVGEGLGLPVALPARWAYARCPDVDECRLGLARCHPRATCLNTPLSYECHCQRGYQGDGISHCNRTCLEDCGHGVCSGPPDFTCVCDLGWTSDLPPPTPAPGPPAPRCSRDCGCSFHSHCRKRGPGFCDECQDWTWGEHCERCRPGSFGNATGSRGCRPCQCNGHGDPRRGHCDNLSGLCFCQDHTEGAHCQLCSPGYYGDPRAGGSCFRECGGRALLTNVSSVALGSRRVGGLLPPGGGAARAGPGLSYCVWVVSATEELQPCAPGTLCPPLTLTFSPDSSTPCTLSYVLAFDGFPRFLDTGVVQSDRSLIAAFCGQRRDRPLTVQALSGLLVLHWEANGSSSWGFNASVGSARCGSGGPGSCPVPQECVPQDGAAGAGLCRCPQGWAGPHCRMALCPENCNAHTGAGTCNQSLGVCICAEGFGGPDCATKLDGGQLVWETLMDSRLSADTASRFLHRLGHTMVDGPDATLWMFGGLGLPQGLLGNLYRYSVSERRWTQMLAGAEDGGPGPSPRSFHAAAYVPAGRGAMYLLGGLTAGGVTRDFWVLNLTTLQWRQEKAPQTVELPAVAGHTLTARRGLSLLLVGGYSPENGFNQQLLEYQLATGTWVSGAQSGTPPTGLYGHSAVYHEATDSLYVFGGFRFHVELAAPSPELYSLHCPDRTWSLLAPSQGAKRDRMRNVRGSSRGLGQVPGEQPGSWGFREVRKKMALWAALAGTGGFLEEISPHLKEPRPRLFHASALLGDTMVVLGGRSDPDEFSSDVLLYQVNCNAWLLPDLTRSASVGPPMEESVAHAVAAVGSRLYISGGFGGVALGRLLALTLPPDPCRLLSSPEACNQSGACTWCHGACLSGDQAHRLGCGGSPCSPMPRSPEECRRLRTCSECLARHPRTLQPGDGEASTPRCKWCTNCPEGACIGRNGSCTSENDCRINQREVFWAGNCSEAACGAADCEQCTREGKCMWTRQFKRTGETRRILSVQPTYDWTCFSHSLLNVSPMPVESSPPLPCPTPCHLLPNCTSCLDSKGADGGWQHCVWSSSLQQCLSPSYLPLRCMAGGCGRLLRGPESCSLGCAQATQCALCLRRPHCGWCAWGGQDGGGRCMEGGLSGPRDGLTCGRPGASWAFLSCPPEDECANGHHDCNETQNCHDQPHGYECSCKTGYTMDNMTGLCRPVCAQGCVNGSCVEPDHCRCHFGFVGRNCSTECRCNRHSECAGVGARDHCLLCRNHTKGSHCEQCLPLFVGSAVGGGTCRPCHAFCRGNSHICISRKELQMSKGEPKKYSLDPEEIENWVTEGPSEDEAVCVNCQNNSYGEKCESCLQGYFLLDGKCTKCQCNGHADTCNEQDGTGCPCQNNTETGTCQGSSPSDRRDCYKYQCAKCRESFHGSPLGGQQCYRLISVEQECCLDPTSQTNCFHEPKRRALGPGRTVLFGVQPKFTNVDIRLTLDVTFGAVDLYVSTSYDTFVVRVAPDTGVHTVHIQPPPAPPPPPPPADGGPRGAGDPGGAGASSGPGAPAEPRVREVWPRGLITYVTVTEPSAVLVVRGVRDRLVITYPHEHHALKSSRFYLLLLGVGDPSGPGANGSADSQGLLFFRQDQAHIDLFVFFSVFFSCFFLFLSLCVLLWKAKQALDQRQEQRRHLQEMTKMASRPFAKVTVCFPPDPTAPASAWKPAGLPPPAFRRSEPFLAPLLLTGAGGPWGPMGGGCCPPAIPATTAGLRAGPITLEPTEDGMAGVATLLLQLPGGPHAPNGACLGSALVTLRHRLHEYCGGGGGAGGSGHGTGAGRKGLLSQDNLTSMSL
UniProt Q06413, whole entry, looked up: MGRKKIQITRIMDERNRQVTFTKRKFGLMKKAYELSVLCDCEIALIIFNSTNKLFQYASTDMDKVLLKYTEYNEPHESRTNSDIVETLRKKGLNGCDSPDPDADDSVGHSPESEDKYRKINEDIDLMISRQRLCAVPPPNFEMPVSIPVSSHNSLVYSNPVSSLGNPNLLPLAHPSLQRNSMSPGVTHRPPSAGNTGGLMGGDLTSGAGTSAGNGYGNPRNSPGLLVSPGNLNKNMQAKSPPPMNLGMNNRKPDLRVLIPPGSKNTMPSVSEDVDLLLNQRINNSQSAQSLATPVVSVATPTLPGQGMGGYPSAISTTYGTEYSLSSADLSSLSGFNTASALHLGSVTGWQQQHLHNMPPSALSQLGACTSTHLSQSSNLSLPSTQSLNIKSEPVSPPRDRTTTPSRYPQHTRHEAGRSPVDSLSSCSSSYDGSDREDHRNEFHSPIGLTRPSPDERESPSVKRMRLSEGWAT
UniProt O00470: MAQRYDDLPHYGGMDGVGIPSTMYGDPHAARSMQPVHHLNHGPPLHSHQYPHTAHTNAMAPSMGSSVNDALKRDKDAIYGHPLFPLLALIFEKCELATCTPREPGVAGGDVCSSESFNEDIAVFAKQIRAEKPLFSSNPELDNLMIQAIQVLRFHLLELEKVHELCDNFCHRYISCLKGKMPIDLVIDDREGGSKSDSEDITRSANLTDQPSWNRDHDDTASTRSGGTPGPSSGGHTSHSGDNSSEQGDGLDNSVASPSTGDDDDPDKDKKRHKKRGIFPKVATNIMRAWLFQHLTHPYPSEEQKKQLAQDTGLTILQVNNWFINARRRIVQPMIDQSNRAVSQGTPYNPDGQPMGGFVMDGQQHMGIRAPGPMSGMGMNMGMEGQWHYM
UniProt Q9NWR8: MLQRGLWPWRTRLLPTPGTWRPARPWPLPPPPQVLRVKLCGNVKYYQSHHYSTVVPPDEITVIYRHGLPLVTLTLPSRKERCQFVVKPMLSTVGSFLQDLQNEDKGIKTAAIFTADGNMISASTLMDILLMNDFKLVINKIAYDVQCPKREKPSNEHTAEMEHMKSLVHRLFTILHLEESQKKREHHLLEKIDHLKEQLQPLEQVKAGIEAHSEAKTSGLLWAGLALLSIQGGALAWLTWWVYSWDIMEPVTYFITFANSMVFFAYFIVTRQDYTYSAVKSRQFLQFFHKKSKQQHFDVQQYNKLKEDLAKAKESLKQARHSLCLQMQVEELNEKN
UniProt Q9H1A3: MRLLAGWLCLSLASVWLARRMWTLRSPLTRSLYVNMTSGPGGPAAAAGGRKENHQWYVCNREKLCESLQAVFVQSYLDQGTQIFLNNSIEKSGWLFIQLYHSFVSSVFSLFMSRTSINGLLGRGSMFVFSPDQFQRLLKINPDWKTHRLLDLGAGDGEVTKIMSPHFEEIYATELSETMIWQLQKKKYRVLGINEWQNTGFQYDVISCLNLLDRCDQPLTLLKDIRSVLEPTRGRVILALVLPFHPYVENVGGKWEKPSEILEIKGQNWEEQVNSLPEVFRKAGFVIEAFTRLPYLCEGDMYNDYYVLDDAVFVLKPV
UniProt Q71SY5: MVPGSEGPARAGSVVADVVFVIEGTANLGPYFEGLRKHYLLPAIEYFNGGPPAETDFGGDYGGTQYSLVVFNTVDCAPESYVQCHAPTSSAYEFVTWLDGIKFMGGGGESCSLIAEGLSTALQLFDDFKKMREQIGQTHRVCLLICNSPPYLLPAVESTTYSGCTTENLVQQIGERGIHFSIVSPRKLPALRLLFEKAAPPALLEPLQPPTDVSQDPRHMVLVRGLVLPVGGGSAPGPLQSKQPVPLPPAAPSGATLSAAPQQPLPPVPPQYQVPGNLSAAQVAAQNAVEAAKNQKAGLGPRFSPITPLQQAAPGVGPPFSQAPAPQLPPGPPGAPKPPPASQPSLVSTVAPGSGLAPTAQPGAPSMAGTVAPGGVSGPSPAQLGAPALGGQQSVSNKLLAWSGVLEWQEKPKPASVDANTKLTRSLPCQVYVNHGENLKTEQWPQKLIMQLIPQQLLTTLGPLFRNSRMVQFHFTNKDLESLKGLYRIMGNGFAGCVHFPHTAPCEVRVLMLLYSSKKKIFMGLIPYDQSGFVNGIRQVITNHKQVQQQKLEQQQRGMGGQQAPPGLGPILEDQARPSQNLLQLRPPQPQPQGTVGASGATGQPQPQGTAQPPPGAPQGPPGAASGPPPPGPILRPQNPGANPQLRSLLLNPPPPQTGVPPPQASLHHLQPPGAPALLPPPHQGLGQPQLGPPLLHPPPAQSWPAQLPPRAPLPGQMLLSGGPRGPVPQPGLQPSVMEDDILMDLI
UniProt Q13503: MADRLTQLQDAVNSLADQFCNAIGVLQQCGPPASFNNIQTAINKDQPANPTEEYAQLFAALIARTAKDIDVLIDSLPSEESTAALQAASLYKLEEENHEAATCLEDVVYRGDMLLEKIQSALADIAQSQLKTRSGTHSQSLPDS

What was measured:
Assay in all cases: log2 fold change, soluble protein after heating vs DMSO (PISA); higher = thermal stabilisation; K562 lysate, 10 uM; active = over 0.2 and 3.5 SD of the protein, either way, in both replicates (recomputed)
vorinostat = compound: O=C(CCCCCCC(=O)Nc1ccccc1)NO [vorinostat]
In short: (§1)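 A 30 min treatment with 10 μM compound was applied to crude K562 extract at 1 mg/mL protein in PBS pH 7.4 with 1 mM MgCl2. Heating for 3 min spanned 48°C-58°C, after which aliquots were pooled, adjusted to 0.5% NP-40 at 4°C and spun at 21,000xg for 90 min. TMTpro 16plex LC-MS/MS of the supernatant, with channel sums equalised, gave values recorded as log-two fold change in thermal stability against solvent controls, from duplicates.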

silmitasertib = compound: O=C(O)c1ccc2c(c1)nc(Nc1cccc(Cl)c1)c1ccncc12 [silmitasertib]
In short: as §1

[1] = compound: O=C1NC(=O)C(c2cnc3ccccn23)=C1c1cn2c3c(cc(F)cc13)CN(C(=O)N1CCCCC1)CC2
In short: as §1

entospletinib = compound: c1cn2cc(-c3ccc4cn[nH]c4c3)nc(Nc3ccc(N4CCOCC4)cc3)c2n1 [entospletinib]
In short: as §1

[2] = compound: NCC(=O)Nc1ccc(-n2nc(C(F)(F)F)cc2-c2ccc3c(ccc4ccccc43)c2)cc1
In short: as §1

Target | log2 fold change (vorinostat) | log2 fold change (silmitasertib) | log2 fold change [1] | log2 fold change (entospletinib) | log2 fold change [2]
MFSD14B (UniProt Q5SR56) | inactive: 0.114 | inactive: 0.103 | inactive: 0.276 | inactive: 0.07 | –
MCEMP1 (UniProt Q8IX19) | – | – | inactive: -0.004 | – | –
METTL21A (UniProt Q8WXB1) | inactive: 0.07 | inactive: -0.016 | inactive: -0.013 | – | –
MED19 (UniProt A0JLT2) | – | – | inactive: 0 | – | inactive: 0.035
MDK (UniProt P21741) | inactive: 0.076 | inactive: -0.038 | inactive: 0.01 | inactive: 0.124 | –
METTL5 (UniProt H0YFV5) | inactive: 0.121 | inactive: -0.078 | inactive: 0.307 | – | –
METTL7B (UniProt Q6UX53) | inactive: 0.208 | inactive: -0.163 | – | – | –
METTL6 (UniProt Q8TCB7) | – | – | inactive: -0.043 | inactive: 0.026 | inactive: 0.054
MEX3B (UniProt Q6ZN04) | inactive: -0.166 | inactive: 0.014 | – | inactive: 0.039 | –
MEGF8 (UniProt Q7Z7M0) | inactive: 0.05 | inactive: -0.062 | inactive: 0.02 | inactive: -0.048 | –
MEF2C isoform 2 (UniProt Q06413) | – | – | inactive: -0.016 | inactive: -0.067 | inactive: -0.105
MEIS1 (UniProt O00470) | – | – | inactive: 0.108 | inactive: 0.121 | –
MCUB (UniProt Q9NWR8) | inactive: 0.129 | inactive: 0.057 | inactive: 0.027 | – | –
MFSD4B (UniProt Q5TF39) | inactive: 0.094 | inactive: -0.04 | inactive: -0.26 | inactive: 0.053 | –
MED28 (UniProt Q9H204) | inactive: -0.219 | inactive: 0.003 | inactive: 0.09 | – | –
METTL9 (UniProt Q9H1A3) | inactive: 0.003 | inactive: 0.225 | inactive: 0.097 | – | –
MED25 isoform 3 (UniProt Q71SY5) | active: -0.294 | inactive: 0.021 | inactive: 0.024 | inactive: 0.127 | –
MED21 (UniProt Q13503) | inactive: 0.14 | inactive: -0.112 | inactive: 0.044 | inactive: -0.003 | –

Single records, from the list above.
MED25 isoform 3 (UniProt Q71SY5) in the list: log2 fold change (vorinostat): active: -0.294; log2 fold change (silmitasertib): inactive: 0.021; log2 fold change [1]: inactive: 0.024; log2 fold change (entospletinib): inactive: 0.127
MFSD4B (UniProt Q5TF39) in the list: log2 fold change (vorinostat): inactive: 0.094; log2 fold change (silmitasertib): inactive: -0.04; log2 fold change [1]: inactive: -0.26; log2 fold change (entospletinib): inactive: 0.053
